Test results published in publication PMC10462713.
No constants are given. Whether binding was seen depends on the method and setting. Binding seen in cells or lysates may run through a third protein. Some entries that bind do so weakly or less than the wild type.

Amino acid sequences for entries named in this document (tags omitted). A change or cut given only in a name is not applied to a line headed by its entry.
UniProt P49327: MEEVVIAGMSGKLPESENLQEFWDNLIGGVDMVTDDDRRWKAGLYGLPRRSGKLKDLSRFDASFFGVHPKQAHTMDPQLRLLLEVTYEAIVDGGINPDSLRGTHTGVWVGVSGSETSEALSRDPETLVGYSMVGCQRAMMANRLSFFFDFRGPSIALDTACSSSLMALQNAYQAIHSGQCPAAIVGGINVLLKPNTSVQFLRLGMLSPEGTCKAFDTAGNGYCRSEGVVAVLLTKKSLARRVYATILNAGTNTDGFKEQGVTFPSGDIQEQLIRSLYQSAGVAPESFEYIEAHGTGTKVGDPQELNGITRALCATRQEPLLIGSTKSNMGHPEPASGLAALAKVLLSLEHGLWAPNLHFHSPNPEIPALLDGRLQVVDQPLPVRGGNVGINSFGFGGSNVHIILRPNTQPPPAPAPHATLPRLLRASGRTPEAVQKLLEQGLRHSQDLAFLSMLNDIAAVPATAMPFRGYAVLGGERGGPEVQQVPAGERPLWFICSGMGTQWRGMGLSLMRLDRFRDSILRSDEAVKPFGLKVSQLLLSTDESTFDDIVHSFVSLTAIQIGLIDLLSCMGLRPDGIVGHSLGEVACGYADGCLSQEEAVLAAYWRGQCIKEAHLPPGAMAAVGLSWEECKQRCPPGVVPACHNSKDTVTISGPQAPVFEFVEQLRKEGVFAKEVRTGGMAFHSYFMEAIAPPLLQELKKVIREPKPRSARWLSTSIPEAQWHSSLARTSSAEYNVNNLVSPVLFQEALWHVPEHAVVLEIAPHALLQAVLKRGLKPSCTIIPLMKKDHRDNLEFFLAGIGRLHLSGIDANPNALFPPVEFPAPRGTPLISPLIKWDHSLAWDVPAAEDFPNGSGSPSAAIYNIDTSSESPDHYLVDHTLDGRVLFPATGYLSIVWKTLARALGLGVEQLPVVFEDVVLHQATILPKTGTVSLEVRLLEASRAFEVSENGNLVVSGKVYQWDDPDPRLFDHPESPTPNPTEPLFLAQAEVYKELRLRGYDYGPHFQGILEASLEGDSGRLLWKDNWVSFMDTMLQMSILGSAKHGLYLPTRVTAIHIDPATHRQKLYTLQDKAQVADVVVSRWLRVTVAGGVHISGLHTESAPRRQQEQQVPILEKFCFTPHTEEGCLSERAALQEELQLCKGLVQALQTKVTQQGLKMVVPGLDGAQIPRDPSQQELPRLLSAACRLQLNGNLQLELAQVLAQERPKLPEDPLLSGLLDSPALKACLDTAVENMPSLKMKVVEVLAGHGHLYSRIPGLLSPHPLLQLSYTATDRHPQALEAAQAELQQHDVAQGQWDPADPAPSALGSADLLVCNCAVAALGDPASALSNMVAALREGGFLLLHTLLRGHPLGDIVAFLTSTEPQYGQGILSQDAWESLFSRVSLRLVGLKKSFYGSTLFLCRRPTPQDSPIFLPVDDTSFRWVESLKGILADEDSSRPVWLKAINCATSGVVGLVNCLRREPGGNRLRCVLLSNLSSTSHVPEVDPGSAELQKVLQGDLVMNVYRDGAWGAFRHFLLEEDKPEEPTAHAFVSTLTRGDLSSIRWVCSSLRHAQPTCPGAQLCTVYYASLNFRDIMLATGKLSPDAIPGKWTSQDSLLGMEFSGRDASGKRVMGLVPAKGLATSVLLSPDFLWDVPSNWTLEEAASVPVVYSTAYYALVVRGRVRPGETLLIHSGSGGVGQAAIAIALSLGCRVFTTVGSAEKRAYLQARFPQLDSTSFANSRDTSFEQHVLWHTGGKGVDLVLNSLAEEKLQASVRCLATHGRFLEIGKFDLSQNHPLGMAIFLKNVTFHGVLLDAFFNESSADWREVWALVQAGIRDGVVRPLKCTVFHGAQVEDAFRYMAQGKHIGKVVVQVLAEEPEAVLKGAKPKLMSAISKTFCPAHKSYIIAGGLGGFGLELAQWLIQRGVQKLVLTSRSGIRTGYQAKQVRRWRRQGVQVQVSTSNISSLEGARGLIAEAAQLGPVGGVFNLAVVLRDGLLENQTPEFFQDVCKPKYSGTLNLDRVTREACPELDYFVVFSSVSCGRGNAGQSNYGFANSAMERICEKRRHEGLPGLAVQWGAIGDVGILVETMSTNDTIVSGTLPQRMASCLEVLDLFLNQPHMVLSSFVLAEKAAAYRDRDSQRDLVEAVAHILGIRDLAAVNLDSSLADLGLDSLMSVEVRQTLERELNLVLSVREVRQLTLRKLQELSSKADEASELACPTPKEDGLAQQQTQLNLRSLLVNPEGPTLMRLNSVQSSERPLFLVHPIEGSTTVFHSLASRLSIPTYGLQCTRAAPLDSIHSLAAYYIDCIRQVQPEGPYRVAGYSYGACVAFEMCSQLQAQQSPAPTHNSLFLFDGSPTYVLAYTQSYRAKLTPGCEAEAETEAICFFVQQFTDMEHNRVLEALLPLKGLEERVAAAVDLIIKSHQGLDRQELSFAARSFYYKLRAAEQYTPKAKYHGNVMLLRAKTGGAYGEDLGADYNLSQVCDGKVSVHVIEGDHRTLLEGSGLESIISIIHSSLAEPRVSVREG
UniProt P49792: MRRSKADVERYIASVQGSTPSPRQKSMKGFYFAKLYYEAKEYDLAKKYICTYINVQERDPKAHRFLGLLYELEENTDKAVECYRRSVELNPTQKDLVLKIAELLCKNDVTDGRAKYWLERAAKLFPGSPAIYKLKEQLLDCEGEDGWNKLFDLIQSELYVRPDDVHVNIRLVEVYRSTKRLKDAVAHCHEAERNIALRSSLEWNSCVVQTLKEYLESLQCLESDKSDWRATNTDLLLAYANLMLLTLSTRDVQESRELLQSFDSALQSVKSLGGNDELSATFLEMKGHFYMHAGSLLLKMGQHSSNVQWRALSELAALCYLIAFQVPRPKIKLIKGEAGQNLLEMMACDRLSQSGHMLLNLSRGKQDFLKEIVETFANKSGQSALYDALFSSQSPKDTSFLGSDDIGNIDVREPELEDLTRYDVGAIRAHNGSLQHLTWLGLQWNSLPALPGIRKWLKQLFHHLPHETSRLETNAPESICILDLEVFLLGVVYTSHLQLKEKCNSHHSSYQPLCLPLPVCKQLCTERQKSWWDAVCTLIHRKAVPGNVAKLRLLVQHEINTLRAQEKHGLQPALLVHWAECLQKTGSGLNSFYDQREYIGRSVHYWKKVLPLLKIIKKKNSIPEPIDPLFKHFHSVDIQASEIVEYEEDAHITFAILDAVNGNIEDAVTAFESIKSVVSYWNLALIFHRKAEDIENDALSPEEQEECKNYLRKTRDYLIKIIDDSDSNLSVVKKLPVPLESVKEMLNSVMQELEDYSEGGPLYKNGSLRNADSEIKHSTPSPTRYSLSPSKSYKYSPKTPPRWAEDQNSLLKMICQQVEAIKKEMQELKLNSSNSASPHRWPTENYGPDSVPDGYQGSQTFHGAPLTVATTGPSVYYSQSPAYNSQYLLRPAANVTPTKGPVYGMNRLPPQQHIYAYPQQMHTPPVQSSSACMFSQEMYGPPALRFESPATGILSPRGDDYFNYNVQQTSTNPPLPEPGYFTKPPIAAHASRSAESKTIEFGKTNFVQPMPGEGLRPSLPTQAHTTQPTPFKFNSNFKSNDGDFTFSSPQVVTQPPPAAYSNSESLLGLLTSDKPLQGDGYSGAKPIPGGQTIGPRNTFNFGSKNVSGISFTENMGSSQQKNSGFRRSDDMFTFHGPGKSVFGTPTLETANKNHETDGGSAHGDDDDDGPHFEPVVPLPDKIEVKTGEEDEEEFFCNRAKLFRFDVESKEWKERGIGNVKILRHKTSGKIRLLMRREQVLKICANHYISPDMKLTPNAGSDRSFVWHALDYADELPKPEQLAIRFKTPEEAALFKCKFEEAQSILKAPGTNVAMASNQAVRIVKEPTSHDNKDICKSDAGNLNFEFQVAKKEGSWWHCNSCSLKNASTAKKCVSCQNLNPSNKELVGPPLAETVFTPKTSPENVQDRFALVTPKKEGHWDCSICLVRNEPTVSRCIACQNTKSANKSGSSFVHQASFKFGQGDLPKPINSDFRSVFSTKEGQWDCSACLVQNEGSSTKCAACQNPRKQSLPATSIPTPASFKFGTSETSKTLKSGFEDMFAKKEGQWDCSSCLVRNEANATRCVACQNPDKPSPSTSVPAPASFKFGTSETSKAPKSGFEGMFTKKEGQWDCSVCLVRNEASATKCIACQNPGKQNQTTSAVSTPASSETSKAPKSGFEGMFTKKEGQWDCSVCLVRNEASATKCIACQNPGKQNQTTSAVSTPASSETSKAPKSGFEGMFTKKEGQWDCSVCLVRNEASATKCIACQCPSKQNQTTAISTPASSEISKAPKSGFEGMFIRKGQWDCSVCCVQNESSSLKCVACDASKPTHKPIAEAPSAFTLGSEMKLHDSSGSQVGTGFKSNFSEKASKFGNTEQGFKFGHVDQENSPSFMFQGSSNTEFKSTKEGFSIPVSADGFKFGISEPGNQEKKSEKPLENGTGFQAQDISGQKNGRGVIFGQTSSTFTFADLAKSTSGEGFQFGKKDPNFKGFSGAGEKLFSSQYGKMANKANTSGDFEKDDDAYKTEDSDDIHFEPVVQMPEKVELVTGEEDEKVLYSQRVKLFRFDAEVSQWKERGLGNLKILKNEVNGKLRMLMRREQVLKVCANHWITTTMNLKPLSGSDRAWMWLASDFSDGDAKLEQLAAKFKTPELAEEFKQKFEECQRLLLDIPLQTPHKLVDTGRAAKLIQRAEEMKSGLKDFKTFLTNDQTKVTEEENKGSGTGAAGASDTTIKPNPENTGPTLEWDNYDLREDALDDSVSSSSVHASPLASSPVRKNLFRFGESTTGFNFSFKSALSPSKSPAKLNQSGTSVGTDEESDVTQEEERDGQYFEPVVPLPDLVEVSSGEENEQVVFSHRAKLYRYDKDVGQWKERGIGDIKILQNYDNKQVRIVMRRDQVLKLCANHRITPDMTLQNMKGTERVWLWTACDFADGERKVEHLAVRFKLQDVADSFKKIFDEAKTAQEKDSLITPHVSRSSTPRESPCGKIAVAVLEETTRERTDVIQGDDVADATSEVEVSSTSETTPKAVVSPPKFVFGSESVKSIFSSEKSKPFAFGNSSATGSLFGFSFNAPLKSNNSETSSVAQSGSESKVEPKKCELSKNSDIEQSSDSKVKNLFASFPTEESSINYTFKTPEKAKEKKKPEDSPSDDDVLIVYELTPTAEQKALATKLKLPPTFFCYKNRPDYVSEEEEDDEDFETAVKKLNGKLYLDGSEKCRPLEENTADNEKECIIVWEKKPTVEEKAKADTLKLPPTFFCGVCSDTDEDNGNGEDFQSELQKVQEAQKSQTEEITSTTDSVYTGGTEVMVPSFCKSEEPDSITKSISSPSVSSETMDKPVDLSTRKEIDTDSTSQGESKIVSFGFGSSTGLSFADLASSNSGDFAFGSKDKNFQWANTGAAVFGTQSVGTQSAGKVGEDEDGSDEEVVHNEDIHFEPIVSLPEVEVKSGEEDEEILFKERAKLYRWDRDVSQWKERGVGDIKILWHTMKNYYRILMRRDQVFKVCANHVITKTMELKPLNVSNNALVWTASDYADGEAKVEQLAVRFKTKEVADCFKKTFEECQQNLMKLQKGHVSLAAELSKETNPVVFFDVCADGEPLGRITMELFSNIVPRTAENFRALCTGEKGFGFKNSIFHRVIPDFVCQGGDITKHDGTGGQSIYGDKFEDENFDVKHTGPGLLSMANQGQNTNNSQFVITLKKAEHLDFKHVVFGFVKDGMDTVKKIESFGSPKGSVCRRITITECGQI
UniProt Q00987: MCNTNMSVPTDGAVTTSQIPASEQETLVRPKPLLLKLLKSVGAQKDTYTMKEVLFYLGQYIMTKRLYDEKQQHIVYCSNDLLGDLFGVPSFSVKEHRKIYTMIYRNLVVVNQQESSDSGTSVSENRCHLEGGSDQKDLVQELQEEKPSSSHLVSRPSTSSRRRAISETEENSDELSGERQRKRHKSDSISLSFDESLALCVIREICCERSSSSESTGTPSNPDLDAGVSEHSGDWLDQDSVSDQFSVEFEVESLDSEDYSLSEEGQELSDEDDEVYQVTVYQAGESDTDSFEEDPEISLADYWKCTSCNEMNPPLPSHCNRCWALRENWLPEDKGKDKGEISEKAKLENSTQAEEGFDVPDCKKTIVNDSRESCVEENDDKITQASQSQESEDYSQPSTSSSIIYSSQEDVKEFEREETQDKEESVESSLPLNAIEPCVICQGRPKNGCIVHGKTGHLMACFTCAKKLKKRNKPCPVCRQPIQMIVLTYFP
UniProt P63279: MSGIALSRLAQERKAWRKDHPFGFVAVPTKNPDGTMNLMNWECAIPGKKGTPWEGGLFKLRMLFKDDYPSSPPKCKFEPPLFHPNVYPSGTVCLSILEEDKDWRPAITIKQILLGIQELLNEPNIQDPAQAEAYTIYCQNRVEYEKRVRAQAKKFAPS

What was measured:
[1] = biological target: Flag-FASN (fatty acid synthase, wild type) (human) (UniProt P49327); assay: co-IP; chondrocytes transfected with plasmids for 48 h; IP lysis buffer (20 mM Tris-HCl, 150 mM NaCl, 1 mM EDTA, 1% Nonidet P40); Sepharose beads and specific IP antibodies overnight at 4 °C; western blot; in some panels with CircRREB1 knockdown or overexpression, RanBP2 knockdown, MG-132 and TSA
Flag-FASN-K673R (human) = Flag-FASN-K673R (human) (UniProt P49327); assay: as above

| Substance | binding [1] | binding (Flag-FASN-K673R (human)) |
| --- | --- | --- |
| E3 SUMO-protein ligase RanBP2 (from UniProt P49792 1-3224) (enzyme) | binds |  |
| HDAC3 (from UniProt O15379 1-428) (enzyme) | binds | binds |
| Myc-MDM2 (from UniProt Q00987 1-491) (enzyme) | binds |  |
| ubiquitin-conjugating enzyme 9 (UBC9) (from UniProt P63279 1-158) | binds |  |
